Reference: EP2535414B1 (priority 2003, dated 2005)
At least one read-out could not be matched to a standard name with certainty. For some assays here: For at least one compound, name, drawing or mass did not settle the structure.

How the values were obtained:
Assay type in all cases: biochemical
[1] = biological target: non-native GAT polypeptide 17-15H3 (SEQ ID NO:601), glyphosate-N-acetyltransferase (Bacillus licheniformis, UniProt Q65LG7); experiment: GAT activity with respect to glyphosate, aspartate and serine (Table 21), DTNB read-out; details: AcCoA as acetyl donor, 25 mM Hepes, pH 6.8, 10% ethylene glycol
Protocol: (§1) GAT activity of several GAT polypeptides of the disclosure was evaluated with respect to a number of amino acid substrates. The GAT polypeptide, AcCoA and amino substrate were incubated in 25 mM Hepes, pH 6.8, 10% ethylene glycol in the wells of a 96-well polystyrene plate. After 30 minutes, the reactions were stopped by the addition of 30 µl of 10 mM 5, 5'-dithiobis-2-nitrobenzoate (DTNB) in 500 mM Tris, pH 7.5. After 2 minutes, absorbance was read at 412 nm in a Spectramax Plus plate reader (Molecular Devices, Sunnyvale, CA).
(§2) Activity with the other protein amino acids was either undetected or less than 3% that of GAT activity towards glyphosate as the substrate. […] The percentages refer to percent activity relative to activity of the GAT polypeptide towards the substrate, glyphosate. Some of the data is shown below in Table 21. Table 21: GAT activity with respect to Glyphosate, Aspartate and Serine

[2] = biological target: native GAT polypeptide 401 (SEQ ID NO:6), glyphosate-N-acetyltransferase (Bacillus licheniformis, UniProt Q65LG7); experiment: as above; details: AcCoA as acetyl donor, 25 mM Hepes, pH 6.8, 10% ethylene glycol
Protocol: as §1, §2

[3] = biological target: non-native GAT polypeptide 25-8H7 (SEQ ID NO:907), glyphosate-N-acetyltransferase (Bacillus licheniformis, UniProt Q65LG7); experiment: as above; details: AcCoA as acetyl donor, 25 mM Hepes, pH 6.8, 10% ethylene glycol
Protocol: as §1, §2

[4] = biological target: native GAT enzyme GAT401 (SEQ ID NO:6), glyphosate-N-acetyltransferase (Bacillus licheniformis, UniProt Q65LG7); experiment: Continuous spectrophotometric assay in the presence of 20 mM KCl, protein quantified via UV absorbance (Example 19)
[5] = biological target: GAT20-30C6 (SEQ ID NO:683) variant 20-30C6 H138S (Bacillus licheniformis, UniProt Q65LG7, form not given/H138S); experiment: GAT kinetics of active-site mutants, 0 KCl, Bradford protein assay (Table 12)
Protocol: (§3) KM was calculated from the initial reaction rates obtained from concentrations of glyphosate ranging from 0.125 to 10 mM, using the Lineweaver-Burke transformation of the Michaelis-Menten equation. kcat/KM was determined by dividing the value determined for kcat by the value determined for KM.
(§4) The amino acids aspartic acid (Asp, D), histidine (His, H) and cysteine (Cys, C) are known to be associated with the active sites of various acetyltransferase enzymes. To determine if any such residues play a role in GAT activity, all D, C, and H residues of GAT20-30C6 (SEQ ID NO:683) were individually mutated to alanine (Ala, A) and the mutated enzymes assayed for N-acetylglyphosate activity. […]

[6] = biological target: GAT20-30C6 (SEQ ID NO:683), evolved glyphosate-N-acetyltransferase, unmodified (Bacillus licheniformis, UniProt Q65LG7); experiment: as above
Protocol: as §3, §4

[7] = biological target: GAT20-30C6 (SEQ ID NO:683) variant 20-30C6 H138R (Bacillus licheniformis, UniProt Q65LG7, form not given/H138R); experiment: as above
Protocol: as §3, §4

[8] = biological target: GAT polypeptide corresponding to SEQ ID NO:457 (glyphosate-N-acetyltransferase) (Bacillus licheniformis, UniProt Q65LG7); experiment: Standard protocol for kcat and KM (continuous spectrophotometric assay, Example 7); details: kcat divided by KM; conditions of Example 7
[9] = biological target: GAT polypeptide corresponding to SEQ ID NO:445 (glyphosate-N-acetyltransferase) (Bacillus licheniformis, UniProt Q65LG7); experiment: as above; details: kcat divided by KM; conditions of Example 7
[10] = biological target: GAT polypeptide corresponding to SEQ ID NO:300 (glyphosate-N-acetyltransferase) (Bacillus licheniformis, UniProt Q65LG7); experiment: as above; details: kcat divided by KM; conditions of Example 7
[11] = biological target: GAT20-30C6 (SEQ ID NO:683) variant 20-30C6 D34A (Bacillus licheniformis, UniProt Q65LG7, D34A, form not given); experiment: GAT kinetics of active-site mutants, 0 KCl, Bradford protein assay (Table 12)

N[C@@H](CC(=O)O)C(=O)O [Aspartate, L-aspartate]
kcat/KM [1]: 2470 M⁻¹ s⁻¹
kcat±SE [1]: 7.25 ± 0.188 s⁻¹
kcat/KM [2]: 60 M⁻¹ s⁻¹
kcat±SE [2]: 0.402 s⁻¹
kcat/KM [3]: 2570 M⁻¹ s⁻¹
kcat±SE [3]: 11.7 ± 0.207 s⁻¹

N[C@@H](CO)C(=O)O [Serine, L-serine]
kcat/KM [1]: 67.3 M⁻¹ s⁻¹
kcat/KM [2]: 330 M⁻¹ s⁻¹
kcat/KM [3]: 42.2 M⁻¹ s⁻¹

O=C(O)CNCP(=O)(O)O [glyphosate, N-phosphonomethylglycine]
kcat/Km [4]: about 1.35 mM^-1 min^-1
kcat/KM [1]: 76220 M⁻¹ s⁻¹
kcat/KM [2]: 70.2 M⁻¹ s⁻¹
kcat/KM [3]: 493330 M⁻¹ s⁻¹
kcat/Km [5]: 12.5 M⁻¹ s⁻¹
kcat/Km [6]: 35370 M⁻¹ s⁻¹
kcat/Km [7]: 41.5 M⁻¹ s⁻¹
kcat/KM [8]: 19730 M⁻¹ s⁻¹
kcat/KM [9]: 11000 M⁻¹ s⁻¹
kcat/KM [10]: 7600 M⁻¹ s⁻¹
kcat/Km [11]: 900 M⁻¹ s⁻¹
